For the data set the following is noted: 1 g particle-loaden xylitol or same amount of commercial naproxen; USP <1092> conditions; UV/Vis at 230 nm; FIG. 6.

With `COc1ccc2cc([C@H](C)C(=O)O)ccc2c1` [unprocessed naproxen, naproxen], the “time until the entire dose is released (dissolution)” value is recorded as 300 s.

Values taken from patent publication US12296348B2, “Electrostatic precipitator” (TECHNISCHE UNIVERSITÄT DORTMUND, priority 2019, dated 2025).
